Test in all cases: co-IP
The target in assay [1] is T1, Flag-tagged SEPT7 (human) (UniProt Q16181).
T1 sequence: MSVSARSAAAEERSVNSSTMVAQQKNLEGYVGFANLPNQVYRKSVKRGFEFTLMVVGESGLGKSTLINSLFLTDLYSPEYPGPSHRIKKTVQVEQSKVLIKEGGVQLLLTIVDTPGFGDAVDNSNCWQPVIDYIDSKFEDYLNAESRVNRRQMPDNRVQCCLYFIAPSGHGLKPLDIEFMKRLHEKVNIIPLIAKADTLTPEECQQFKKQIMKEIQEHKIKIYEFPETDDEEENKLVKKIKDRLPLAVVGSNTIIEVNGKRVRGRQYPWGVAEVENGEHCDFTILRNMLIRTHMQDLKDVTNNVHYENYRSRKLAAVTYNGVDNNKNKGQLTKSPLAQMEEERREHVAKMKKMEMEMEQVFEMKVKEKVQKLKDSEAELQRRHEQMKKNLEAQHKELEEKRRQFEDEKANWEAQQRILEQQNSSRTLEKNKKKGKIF

The target of assay [2] is T2, Flag-tagged SEPT2 (human) (UniProt Q15019).
T2 sequence: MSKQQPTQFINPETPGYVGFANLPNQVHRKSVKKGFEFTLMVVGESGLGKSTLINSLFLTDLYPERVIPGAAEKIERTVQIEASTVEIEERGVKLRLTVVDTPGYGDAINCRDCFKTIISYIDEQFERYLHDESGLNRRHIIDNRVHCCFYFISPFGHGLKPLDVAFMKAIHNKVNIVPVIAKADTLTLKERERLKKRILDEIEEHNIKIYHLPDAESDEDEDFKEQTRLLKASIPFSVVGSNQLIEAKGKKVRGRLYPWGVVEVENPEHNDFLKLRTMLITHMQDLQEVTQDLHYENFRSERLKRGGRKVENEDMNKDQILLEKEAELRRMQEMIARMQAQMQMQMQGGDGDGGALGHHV

In assay [3] the target is T3, Flag-tagged SEPT6 (human), Q14141.
T3 chain: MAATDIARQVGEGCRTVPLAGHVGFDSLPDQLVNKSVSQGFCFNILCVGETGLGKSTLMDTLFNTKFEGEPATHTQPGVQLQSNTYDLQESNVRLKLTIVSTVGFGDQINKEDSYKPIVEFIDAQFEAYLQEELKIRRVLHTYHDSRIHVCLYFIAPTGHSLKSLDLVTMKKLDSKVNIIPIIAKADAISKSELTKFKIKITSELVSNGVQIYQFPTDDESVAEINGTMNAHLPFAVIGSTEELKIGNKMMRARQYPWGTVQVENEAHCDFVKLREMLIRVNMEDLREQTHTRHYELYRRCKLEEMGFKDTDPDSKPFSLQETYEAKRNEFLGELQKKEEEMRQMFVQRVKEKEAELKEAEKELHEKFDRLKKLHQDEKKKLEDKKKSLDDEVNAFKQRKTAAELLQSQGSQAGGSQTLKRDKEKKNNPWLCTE
The conditions noted are these: remark: other sources report otherwise.

No constants are given. Whether binding was seen depends on the method and setting. Binding seen in cells or lysates may run through a third protein. Some results given as binding are weak or reduced against the parent protein; the word gives no strength. Sequences can lack the tags named with a protein.

B1: SEPT9 (protein, UniProt Q9UHD8 1-586)
chain: MKKSYSGGTRTSSGRLRRLGDSSGPALKRSFEVEEVETPNSTPPRRVQTPLLRATVASSTQKFQDLGVKNSEPSARHVDSLSQRSPKASLRRVELSGPKAAEPVSRRTELSIDISSKQVENAGAIGPSRFGLKRAEVLGHKTPEPAPRRTEITIVKPQESAHRRMEPPASKVPEVPTAPATDAAPKRVEIQMPKPAEAPTAPSPAQTLENSEPAPVSQLQSRLEPKPQPPVAEATPRSQEATEAAPSCVGDMADTPRDAGLKQAPASRNEKAPVDFGYVGIDSILEQMRRKAMKQGFEFNIMVVGQSGLGKSTLINTLFKSKISRKSVQPTSEERIPKTIEIKSITHDIEEKGVRMKLTVIDTPGFGDHINNENCWQPIMKFINDQYEKYLQEEVNINRKKRIPDTRVHCCLYFIPATGHSLRPLDIEFMKRLSKVVNIVPVIAKADTLTLEERVHFKQRITADLLSNGIDVYPQKEFDEDSEDRLVNEKFREMIPFAVVGSDHEYQVNGKRILGRKTKWGTIEVENTTHCEFAYLRDLLIRTHMQNIKDITSSIHFEAYRVKRLNEGSSAMANGMEEKEPEAPEM
For B1, the binding result in assay [1] and in assay [2] was “binds” throughout.

B2: SEPT9, Q9UHD8 1-586 (protein)
chain: MKKSYSGGTRTSSGRLRRLGDSSGPALKRSFEVEEVETPNSTPPRRVQTPLLRATVASSTQKFQDLGVKNSEPSARHVDSLSQRSPKASLRRVELSGPKAAEPVSRRTELSIDISSKQVENAGAIGPSRFGLKRAEVLGHKTPEPAPRRTEITIVKPQESAHRRMEPPASKVPEVPTAPATDAAPKRVEIQMPKPAEAPTAPSPAQTLENSEPAPVSQLQSRLEPKPQPPVAEATPRSQEATEAAPSCVGDMADTPRDAGLKQAPASRNEKAPVDFGYVGIDSILEQMRRKAMKQGFEFNIMVVGQSGLGKSTLINTLFKSKISRKSVQPTSEERIPKTIEIKSITHDIEEKGVRMKLTVIDTPGFGDHINNENCWQPIMKFINDQYEKYLQEEVNINRKKRIPDTRVHCCLYFIPATGHSLRPLDIEFMKRLSKVVNIVPVIAKADTLTLEERVHFKQRITADLLSNGIDVYPQKEFDEDSEDRLVNEKFREMIPFAVVGSDHEYQVNGKRILGRKTKWGTIEVENTTHCEFAYLRDLLIRTHMQNIKDITSSIHFEAYRVKRLNEGSSAMANGMEEKEPEAPEM
As for B2, the binding entry in assay [3] is listed as “binds”.
